Measured values as given in paper PMC12377713.
These are yes or no findings as the source states them, for the method shown. Binding seen in cells or lysates may run through a third protein. Some results given as binding are weak or reduced against the parent protein; the word gives no strength.

By UniProt entry, the sequences of proteins in these tests, tags left out.
UniProt Q9Y519: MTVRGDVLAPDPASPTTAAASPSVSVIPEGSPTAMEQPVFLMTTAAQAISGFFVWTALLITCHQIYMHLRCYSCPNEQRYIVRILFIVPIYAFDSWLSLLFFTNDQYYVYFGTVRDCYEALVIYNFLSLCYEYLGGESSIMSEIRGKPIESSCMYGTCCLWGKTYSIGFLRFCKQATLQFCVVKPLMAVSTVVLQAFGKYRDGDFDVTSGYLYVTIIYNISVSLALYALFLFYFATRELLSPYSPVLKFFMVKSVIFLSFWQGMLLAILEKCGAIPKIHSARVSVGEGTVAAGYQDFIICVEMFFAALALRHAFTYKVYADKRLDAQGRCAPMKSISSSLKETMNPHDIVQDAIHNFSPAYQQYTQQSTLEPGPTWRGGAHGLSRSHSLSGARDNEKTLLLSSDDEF
UniProt Q93050: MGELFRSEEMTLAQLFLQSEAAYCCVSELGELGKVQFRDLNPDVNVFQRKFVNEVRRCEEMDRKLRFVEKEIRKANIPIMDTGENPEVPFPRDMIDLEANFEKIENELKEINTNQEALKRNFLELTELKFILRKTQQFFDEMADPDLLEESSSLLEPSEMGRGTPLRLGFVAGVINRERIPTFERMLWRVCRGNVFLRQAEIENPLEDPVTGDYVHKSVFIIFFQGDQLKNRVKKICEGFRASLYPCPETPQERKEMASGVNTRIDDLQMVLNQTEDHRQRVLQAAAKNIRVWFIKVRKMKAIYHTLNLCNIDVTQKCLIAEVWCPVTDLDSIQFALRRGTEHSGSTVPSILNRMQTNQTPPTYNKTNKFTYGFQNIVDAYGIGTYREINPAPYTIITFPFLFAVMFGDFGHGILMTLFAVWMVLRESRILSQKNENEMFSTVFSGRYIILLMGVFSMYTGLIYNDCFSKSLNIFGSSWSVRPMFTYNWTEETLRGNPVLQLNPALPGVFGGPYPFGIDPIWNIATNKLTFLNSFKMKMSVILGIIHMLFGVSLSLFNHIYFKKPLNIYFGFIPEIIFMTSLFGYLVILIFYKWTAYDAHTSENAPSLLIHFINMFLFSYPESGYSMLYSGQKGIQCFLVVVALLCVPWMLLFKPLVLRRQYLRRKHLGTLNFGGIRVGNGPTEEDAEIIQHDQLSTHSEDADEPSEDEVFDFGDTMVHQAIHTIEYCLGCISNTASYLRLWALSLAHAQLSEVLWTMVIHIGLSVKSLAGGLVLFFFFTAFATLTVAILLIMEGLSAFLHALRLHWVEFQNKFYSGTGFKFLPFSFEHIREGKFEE

Target: FLAG–TMEM184B–GFP (human) (UniProt Q9Y519)
Assay: co-IP; FLAG–TMEM184B–GFP (control FLAG-GFP) expressed in cells; IP of V0a1 and blot for FLAG, and reverse IP with FLAG antibody and blot for V0a1

Substance: ATP6V0A1 (the V0a1 subunit of the V-ATPase) (from UniProt Q93050 1-837)
- binding: binds
